This is one part of the list.
Compound: Cc1cc(ccc1-c1ccccc1)C(=O)N1CCCN(CC1)C(=O)CCl [compound 10]
Assay: probe-labelled cysteine peptide fold change vs DMSO (competition) (log2 fold change); higher = less target engagement (more negative = stronger competition)
Conditions: 10 µM; THP-1; incubation time: 4 h
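Note: competitive profiling in live THP-1 cells: cysteine peptides tagged with an iodoacetamide desthiobiotin (IA-DTB) probe, intensity after compound treatment relative to DMSO-treated cells.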

Chains of the proteins cited; added tags and fusions are not shown. Lines headed by an entry give the natural chain unless they say otherwise; changes in a name come on top.
UniProt Q9NWV4: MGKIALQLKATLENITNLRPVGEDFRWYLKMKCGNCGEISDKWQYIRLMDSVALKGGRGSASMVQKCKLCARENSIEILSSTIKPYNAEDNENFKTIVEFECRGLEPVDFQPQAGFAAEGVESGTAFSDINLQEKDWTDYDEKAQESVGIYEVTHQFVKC
UniProt Q9H6K1: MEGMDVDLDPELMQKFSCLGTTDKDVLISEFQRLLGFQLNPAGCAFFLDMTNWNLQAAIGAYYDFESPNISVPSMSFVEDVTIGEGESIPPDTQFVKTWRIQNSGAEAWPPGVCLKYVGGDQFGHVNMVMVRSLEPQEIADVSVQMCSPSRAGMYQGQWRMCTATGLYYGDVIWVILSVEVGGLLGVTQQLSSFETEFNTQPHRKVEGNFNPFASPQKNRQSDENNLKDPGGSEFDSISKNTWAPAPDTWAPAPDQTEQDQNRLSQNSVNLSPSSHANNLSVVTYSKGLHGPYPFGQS
UniProt P49069: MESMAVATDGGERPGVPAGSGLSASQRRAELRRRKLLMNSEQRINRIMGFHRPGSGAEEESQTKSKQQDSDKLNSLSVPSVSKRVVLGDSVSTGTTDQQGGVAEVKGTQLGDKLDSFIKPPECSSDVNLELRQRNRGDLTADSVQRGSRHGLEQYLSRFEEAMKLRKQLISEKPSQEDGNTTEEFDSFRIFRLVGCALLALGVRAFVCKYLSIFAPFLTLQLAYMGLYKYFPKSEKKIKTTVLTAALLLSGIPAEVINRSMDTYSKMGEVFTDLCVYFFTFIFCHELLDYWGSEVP
UniProt Q49AR2: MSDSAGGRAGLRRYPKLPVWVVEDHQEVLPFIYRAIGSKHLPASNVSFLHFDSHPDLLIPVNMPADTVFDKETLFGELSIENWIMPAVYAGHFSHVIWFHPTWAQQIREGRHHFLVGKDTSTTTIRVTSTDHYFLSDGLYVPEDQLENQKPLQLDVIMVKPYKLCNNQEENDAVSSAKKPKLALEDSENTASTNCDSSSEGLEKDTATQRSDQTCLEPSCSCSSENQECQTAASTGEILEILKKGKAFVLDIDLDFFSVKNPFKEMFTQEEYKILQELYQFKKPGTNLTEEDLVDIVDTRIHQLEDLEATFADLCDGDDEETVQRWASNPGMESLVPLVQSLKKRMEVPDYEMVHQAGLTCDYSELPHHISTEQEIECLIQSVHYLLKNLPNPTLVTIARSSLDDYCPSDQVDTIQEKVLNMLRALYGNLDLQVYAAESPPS
UniProt Q8N8R5: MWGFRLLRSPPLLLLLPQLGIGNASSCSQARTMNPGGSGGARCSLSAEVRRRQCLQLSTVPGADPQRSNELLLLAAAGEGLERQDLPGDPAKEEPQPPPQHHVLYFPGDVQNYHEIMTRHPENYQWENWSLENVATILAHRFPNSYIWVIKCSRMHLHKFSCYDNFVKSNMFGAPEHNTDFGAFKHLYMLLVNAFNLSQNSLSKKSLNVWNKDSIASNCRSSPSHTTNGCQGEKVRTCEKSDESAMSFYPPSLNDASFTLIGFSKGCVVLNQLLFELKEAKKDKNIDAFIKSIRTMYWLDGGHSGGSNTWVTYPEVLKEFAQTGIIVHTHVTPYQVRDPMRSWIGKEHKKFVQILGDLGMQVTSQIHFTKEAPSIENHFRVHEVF
UniProt Q13137: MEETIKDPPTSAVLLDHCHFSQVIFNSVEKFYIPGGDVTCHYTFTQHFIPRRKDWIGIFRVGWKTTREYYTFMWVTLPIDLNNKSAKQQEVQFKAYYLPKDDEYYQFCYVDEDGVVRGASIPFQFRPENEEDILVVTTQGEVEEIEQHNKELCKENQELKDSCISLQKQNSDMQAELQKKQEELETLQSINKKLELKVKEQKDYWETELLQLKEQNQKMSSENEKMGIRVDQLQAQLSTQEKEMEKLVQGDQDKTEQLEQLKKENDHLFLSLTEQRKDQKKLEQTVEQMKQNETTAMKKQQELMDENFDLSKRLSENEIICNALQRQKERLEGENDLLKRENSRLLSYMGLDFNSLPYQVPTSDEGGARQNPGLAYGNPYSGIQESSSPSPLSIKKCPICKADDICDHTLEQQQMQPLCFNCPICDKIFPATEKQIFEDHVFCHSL
UniProt P41223: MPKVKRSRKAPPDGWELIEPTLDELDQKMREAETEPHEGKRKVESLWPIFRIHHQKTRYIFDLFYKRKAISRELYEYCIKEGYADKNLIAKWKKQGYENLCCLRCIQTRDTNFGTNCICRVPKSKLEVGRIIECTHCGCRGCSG
UniProt Q10588: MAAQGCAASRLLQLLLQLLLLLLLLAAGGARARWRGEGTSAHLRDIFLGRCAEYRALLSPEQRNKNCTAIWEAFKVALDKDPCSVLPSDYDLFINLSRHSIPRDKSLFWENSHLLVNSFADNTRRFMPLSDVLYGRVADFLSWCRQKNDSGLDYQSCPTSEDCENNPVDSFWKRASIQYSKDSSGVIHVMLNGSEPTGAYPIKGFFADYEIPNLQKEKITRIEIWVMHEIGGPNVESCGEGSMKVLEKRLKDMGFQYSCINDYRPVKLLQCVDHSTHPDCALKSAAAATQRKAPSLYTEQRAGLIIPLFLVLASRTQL
UniProt Q14012: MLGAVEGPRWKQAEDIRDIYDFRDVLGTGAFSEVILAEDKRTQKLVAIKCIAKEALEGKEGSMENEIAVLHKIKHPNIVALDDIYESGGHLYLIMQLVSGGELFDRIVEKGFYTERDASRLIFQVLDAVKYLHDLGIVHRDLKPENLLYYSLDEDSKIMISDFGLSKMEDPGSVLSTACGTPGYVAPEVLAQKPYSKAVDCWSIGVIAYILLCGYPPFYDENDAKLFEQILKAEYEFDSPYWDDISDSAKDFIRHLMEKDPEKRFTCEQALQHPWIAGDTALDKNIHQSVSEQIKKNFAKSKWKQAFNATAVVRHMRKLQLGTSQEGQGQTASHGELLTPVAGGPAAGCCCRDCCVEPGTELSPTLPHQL
UniProt O75155: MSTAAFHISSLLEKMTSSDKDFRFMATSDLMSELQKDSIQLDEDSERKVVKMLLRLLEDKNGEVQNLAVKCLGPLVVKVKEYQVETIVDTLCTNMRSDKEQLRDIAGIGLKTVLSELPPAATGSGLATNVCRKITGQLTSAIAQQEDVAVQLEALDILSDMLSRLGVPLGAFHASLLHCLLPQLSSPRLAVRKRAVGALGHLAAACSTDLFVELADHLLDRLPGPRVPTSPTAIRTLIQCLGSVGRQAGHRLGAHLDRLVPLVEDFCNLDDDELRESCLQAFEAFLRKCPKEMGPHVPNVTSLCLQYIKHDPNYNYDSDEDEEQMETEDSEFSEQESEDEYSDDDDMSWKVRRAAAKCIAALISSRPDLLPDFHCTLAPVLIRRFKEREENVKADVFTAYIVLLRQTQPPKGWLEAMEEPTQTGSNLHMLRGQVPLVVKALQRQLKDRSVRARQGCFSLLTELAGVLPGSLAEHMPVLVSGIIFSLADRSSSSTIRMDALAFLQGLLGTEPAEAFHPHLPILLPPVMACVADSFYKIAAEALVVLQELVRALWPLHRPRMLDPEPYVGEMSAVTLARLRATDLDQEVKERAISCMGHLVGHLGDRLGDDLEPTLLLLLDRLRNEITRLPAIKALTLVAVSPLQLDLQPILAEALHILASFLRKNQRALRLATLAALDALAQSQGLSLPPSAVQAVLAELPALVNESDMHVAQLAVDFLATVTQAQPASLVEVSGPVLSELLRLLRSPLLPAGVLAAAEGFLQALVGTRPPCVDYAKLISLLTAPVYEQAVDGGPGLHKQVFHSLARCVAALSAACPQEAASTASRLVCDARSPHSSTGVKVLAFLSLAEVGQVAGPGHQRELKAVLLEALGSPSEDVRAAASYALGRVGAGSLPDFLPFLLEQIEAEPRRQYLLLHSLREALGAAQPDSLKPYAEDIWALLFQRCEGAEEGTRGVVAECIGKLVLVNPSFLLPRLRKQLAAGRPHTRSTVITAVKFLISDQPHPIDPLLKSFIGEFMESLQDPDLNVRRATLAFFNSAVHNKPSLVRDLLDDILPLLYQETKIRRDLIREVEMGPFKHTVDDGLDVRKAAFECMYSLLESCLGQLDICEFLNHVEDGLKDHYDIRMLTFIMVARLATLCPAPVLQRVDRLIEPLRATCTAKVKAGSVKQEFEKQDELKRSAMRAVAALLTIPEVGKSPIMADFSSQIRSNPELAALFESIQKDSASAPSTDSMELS
UniProt Q9H741: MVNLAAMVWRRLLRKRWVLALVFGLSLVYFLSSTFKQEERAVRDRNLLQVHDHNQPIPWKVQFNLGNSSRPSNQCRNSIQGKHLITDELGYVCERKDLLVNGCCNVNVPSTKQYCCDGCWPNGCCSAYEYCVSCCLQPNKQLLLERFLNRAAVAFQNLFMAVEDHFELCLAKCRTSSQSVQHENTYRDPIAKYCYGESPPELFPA
UniProt Q9Y6J0: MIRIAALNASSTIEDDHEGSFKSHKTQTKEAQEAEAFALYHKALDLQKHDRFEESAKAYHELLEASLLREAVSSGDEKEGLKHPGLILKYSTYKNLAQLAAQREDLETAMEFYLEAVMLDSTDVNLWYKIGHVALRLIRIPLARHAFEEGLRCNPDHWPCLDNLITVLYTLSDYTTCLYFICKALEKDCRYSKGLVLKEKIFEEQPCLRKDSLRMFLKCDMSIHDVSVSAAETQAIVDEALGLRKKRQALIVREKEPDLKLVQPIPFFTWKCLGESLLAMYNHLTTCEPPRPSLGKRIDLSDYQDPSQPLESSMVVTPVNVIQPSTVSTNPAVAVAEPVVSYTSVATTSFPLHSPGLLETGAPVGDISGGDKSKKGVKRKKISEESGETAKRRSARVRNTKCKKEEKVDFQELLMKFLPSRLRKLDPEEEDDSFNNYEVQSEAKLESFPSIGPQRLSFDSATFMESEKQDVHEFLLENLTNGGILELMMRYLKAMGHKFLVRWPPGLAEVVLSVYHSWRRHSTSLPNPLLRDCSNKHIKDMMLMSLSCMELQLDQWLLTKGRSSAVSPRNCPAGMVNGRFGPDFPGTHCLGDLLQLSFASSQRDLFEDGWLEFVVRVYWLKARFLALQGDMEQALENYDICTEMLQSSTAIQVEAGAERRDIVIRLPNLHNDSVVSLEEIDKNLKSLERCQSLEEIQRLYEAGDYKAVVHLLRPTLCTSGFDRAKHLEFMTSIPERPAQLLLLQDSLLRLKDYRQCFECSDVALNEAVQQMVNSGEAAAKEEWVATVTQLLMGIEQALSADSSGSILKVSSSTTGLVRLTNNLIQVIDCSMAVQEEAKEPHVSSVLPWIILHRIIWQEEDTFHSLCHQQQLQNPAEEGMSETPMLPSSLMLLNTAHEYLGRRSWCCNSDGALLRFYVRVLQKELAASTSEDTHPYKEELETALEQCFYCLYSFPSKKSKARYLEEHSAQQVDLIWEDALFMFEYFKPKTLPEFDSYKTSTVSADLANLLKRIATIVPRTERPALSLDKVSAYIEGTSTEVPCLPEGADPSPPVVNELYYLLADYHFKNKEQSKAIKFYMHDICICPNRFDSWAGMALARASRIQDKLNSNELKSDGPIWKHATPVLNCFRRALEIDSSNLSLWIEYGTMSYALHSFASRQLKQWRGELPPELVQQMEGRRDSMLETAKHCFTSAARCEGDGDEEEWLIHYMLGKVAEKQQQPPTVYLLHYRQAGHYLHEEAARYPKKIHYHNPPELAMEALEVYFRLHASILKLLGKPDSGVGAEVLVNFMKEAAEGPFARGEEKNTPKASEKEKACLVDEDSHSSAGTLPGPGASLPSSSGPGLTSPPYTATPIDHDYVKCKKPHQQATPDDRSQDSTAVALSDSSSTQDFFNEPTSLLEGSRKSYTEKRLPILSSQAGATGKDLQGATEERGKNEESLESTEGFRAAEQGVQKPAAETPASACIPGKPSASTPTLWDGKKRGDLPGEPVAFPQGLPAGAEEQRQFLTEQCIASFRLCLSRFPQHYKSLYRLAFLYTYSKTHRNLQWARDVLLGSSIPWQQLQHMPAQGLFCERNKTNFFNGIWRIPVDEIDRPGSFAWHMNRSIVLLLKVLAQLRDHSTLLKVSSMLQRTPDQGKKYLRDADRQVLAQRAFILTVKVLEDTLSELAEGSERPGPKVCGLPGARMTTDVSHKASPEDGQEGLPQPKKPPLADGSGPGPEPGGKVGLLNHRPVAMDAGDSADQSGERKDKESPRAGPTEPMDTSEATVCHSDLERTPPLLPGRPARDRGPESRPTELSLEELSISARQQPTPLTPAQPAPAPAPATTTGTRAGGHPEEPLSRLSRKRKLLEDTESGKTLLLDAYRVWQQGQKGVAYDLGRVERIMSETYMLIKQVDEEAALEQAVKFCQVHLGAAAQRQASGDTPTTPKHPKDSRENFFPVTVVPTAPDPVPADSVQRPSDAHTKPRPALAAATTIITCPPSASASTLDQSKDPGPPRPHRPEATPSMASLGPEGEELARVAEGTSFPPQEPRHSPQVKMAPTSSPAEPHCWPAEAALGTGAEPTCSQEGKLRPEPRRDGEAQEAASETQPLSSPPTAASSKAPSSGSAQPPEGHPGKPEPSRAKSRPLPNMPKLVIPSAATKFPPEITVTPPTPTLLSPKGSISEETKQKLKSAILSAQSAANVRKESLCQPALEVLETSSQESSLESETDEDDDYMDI

| Target | probe-labelled cysteine peptide fold change |
| --- | --- |
| C1orf123_Q9NWV4_102_TIVEFECR (UniProt Q9NWV4) | -0.00571 |
| BRIP1_Q9BX63_332_ISDQHTLQTFQGMCK (UniProt Q9BX63) | 0.0753 |
| CAD_P27708_736_NSVTGGTAAFEPSVDYCVVK (UniProt P27708) | 0.156 |
| CALR_P27797_163_CKDDEFTHLYTLIVR (UniProt P27797) | -0.0557 |
| CAND1_Q86VP6_92_EYQVETIVDTLCTNMLSDK (UniProt Q86VP6) | 0.0398 |
| CAMK2B_Q13554_561_ICDPGLTSFEPEALGNLVEGMDFHR (UniProt Q13554) | 0.0164 |
| C6orf106_Q9H6K1_147_SLEPQEIADVSVQMCSPSR (UniProt Q9H6K1) | -0.139 |
| CAMSAP1_Q5T5Y3_1379_EESCSDSGTK (UniProt Q5T5Y3) | -0.0703 |
| CAD_P27708_2016_GESLADSVQTMSCYADVVVLR (UniProt P27708) | 0.0676 |
| CAMLG_P49069_123_GTQLGDKLDSFIKPPECSSDVNLELR (UniProt P49069) | -0.255 |
| BRF1_Q92994_9_GCGGTDIELDAAR (UniProt Q92994) | -0.0432 |
| BUB1B_O60566_767_EIELGNEDYCIKR (UniProt O60566) | 0.0723 |
| C5orf22_Q49AR2_195_LALEDSENTASTNCDSSSEGLEK (UniProt Q49AR2) | -0.0556 |
| CANX_P27824_360+366_CESAPGCGVWQRPVIDNPNYK (UniProt P27824) | 0.0671 |
| CAND1_Q86VP6_571_DLFTCTIK (UniProt Q86VP6) | 0.144 |
| C2orf69_Q8N8R5_267_GCVVLNQLLFELK (UniProt Q8N8R5) | 0.194 |
| C1orf50_Q9BV19_189_ISMMDTLLSQSVALPPCTEPNFQGLTH (UniProt Q9BV19) | -0.117 |
| CAD_P27708_787_MVDENCVGFDHTVKPVSDMELETPTDKR (UniProt P27708) | -0.272 |
| C1orf123_Q9NWV4_33+36_CGNCGEISDK (UniProt Q9NWV4) | -0.0103 |
| CALCOCO2_Q13137_163_DSCISLQK (UniProt Q13137) | -0.176 |

| Target | probe-labelled cysteine peptide fold change |
| --- | --- |
| BUD31_P41223_78_ELYEYCIK (UniProt P41223) | 0.154 |
| BST1_Q10588_271_LLQCVDHSTHPDCALK (UniProt Q10588) | -0.102 |
| CALR_P27797_137_LFPNSLDQTDMHGDSEYNIMFGPDICGPGTK (UniProt P27797) | -0.0389 |
| CAMK1_Q14012_267_RFTCEQALQHPWIAGDTALDK (UniProt Q14012) | -0.112 |
| CAND2_O75155_375_CIAALISSRPDLLPDFHCTLAPVLIR (UniProt O75155) | 0.136 |
| C5_P01031_1553_KQTACKPEIAYAYK (UniProt P01031) | -0.117 |
| CAD_P27708_379_LCPPGIPTPGSGLPPPR (UniProt P27708) | 0.107 |
| BRCA1_P38398_1251_HSTVATECLSK (UniProt P38398) | -0.00703 |
| BRIX1_Q8TDN6_107_LFVINEVCEMK (UniProt Q8TDN6) | 0.0119 |
| BUB1_O43683_1013_NEGGECKPEGLFR (UniProt O43683) | 0.156 |
| C12orf49_Q9H741_93_HLITDELGYVCER (UniProt Q9H741) | -0.0438 |
| C2CD2L_O14523_359_SSSCGDTELLGQATLPVGSPSRPLSR (UniProt O14523) | 0.123 |
| CABIN1_Q9Y6J0_1197_CEGDGDEEEWLIHYMLGK (UniProt Q9Y6J0) | -0.261 |
| BUD31_P41223_102_QGYENLCCLR (UniProt P41223) | 0.0475 |
| CAND1_Q86VP6_413_QTRPVQSWLCDPDAMEQGETPLTMLQSQVPNIVK (UniProt Q86VP6) | 0.0762 |
| C5orf51_A6NDU8_244_YCADQQPENHEVDTSVSGAGCTTYKEPLDFR (UniProt A6NDU8) | -0.12 |
| BTN2A1_Q7KYR7_475_SHIYTCPR (UniProt Q7KYR7) | 0.103 |
| C9orf64_Q5T6V5_281_GCSLWCVELIR (UniProt Q5T6V5) | 0.465 |
| C19orf54_Q5BKX5_226_DLVLQHLVTGHPLLIPYDEDFNHEPCQR (UniProt Q5BKX5) | 0.0102 |

Same assay, conditions: 50 µM; THP-1; incubation time: 4 h

| Target | probe-labelled cysteine peptide fold change |
| --- | --- |
| C1orf123_Q9NWV4_102_TIVEFECR (UniProt Q9NWV4) | -0.0169 |
| BRIP1_Q9BX63_332_ISDQHTLQTFQGMCK (UniProt Q9BX63) | -0.144 |
| CAD_P27708_736_NSVTGGTAAFEPSVDYCVVK (UniProt P27708) | 0.0229 |
| CALR_P27797_163_CKDDEFTHLYTLIVR (UniProt P27797) | 0.319 |
| CAND1_Q86VP6_92_EYQVETIVDTLCTNMLSDK (UniProt Q86VP6) | 0.396 |
| CAMK2B_Q13554_561_ICDPGLTSFEPEALGNLVEGMDFHR (UniProt Q13554) | -0.0985 |
| C6orf106_Q9H6K1_147_SLEPQEIADVSVQMCSPSR (UniProt Q9H6K1) | 0.0666 |
| CAMSAP1_Q5T5Y3_1379_EESCSDSGTK (UniProt Q5T5Y3) | 0.0443 |
| CAD_P27708_2016_GESLADSVQTMSCYADVVVLR (UniProt P27708) | -0.127 |
| CAMLG_P49069_123_GTQLGDKLDSFIKPPECSSDVNLELR (UniProt P49069) | -0.43 |
| BRF1_Q92994_9_GCGGTDIELDAAR (UniProt Q92994) | 0.35 |
| BUB1B_O60566_767_EIELGNEDYCIKR (UniProt O60566) | -0.437 |
| C5orf22_Q49AR2_195_LALEDSENTASTNCDSSSEGLEK (UniProt Q49AR2) | 0.0623 |
| CANX_P27824_360+366_CESAPGCGVWQRPVIDNPNYK (UniProt P27824) | -0.0416 |
| CAND1_Q86VP6_571_DLFTCTIK (UniProt Q86VP6) | 0.168 |
| C2orf69_Q8N8R5_267_GCVVLNQLLFELK (UniProt Q8N8R5) | 0.185 |
| C1orf50_Q9BV19_189_ISMMDTLLSQSVALPPCTEPNFQGLTH (UniProt Q9BV19) | 0.0779 |
| CAD_P27708_787_MVDENCVGFDHTVKPVSDMELETPTDKR (UniProt P27708) | 0.00727 |
| C1orf123_Q9NWV4_33+36_CGNCGEISDK (UniProt Q9NWV4) | -0.232 |
| CALCOCO2_Q13137_163_DSCISLQK (UniProt Q13137) | -0.236 |

| Target | probe-labelled cysteine peptide fold change |
| --- | --- |
| BUD31_P41223_78_ELYEYCIK (UniProt P41223) | 0.0166 |
| BST1_Q10588_271_LLQCVDHSTHPDCALK (UniProt Q10588) | 0.112 |
| CALR_P27797_137_LFPNSLDQTDMHGDSEYNIMFGPDICGPGTK (UniProt P27797) | 0.0181 |
| CAMK1_Q14012_267_RFTCEQALQHPWIAGDTALDK (UniProt Q14012) | -0.104 |
| CAND2_O75155_375_CIAALISSRPDLLPDFHCTLAPVLIR (UniProt O75155) | -0.42 |
| C5_P01031_1553_KQTACKPEIAYAYK (UniProt P01031) | 0.0192 |
| CAD_P27708_379_LCPPGIPTPGSGLPPPR (UniProt P27708) | 0.247 |
| BRCA1_P38398_1251_HSTVATECLSK (UniProt P38398) | 0.0124 |
| BRIX1_Q8TDN6_107_LFVINEVCEMK (UniProt Q8TDN6) | -0.148 |
| BUB1_O43683_1013_NEGGECKPEGLFR (UniProt O43683) | 0.12 |
| C12orf49_Q9H741_93_HLITDELGYVCER (UniProt Q9H741) | -0.0416 |
| C2CD2L_O14523_359_SSSCGDTELLGQATLPVGSPSRPLSR (UniProt O14523) | -0.171 |
| CABIN1_Q9Y6J0_1197_CEGDGDEEEWLIHYMLGK (UniProt Q9Y6J0) | -0.0151 |
| BUD31_P41223_102_QGYENLCCLR (UniProt P41223) | -0.158 |
| CAND1_Q86VP6_413_QTRPVQSWLCDPDAMEQGETPLTMLQSQVPNIVK (UniProt Q86VP6) | -0.165 |
| C5orf51_A6NDU8_244_YCADQQPENHEVDTSVSGAGCTTYKEPLDFR (UniProt A6NDU8) | -0.542 |
| BTN2A1_Q7KYR7_475_SHIYTCPR (UniProt Q7KYR7) | -0.13 |
| C9orf64_Q5T6V5_281_GCSLWCVELIR (UniProt Q5T6V5) | 0.747 |
| C19orf54_Q5BKX5_226_DLVLQHLVTGHPLLIPYDEDFNHEPCQR (UniProt Q5BKX5) | -0.0625 |
